Laboratory results from paper doi:10.1101/2024.02.06.579055.
Results are given in words; binding and its absence hold for the method and conditions named. Binding seen in cells or lysates may run through a third protein. These calls come from enrichment with a bait or labelling near it, and not all partners need be listed.

Sequences of proteins named here, by UniProt entry; tags and fusion partners are left off.
UniProt O14744: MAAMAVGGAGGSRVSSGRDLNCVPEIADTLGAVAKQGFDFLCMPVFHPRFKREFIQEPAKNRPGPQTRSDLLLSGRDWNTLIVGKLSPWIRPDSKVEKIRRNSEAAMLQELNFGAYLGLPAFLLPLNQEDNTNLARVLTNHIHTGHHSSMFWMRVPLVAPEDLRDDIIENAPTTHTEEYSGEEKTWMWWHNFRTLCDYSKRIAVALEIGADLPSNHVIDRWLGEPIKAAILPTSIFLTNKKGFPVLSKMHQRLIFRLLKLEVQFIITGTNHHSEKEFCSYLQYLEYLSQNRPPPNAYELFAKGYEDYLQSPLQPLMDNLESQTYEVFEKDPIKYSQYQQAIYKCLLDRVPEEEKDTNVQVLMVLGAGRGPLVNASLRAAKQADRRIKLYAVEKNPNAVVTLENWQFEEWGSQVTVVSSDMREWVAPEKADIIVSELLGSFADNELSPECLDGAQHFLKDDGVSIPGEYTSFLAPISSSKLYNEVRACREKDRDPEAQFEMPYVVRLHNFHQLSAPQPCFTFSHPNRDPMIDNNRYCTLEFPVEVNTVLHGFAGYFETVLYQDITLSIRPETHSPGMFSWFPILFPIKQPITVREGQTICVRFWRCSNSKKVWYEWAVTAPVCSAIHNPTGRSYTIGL
UniProt Q92570: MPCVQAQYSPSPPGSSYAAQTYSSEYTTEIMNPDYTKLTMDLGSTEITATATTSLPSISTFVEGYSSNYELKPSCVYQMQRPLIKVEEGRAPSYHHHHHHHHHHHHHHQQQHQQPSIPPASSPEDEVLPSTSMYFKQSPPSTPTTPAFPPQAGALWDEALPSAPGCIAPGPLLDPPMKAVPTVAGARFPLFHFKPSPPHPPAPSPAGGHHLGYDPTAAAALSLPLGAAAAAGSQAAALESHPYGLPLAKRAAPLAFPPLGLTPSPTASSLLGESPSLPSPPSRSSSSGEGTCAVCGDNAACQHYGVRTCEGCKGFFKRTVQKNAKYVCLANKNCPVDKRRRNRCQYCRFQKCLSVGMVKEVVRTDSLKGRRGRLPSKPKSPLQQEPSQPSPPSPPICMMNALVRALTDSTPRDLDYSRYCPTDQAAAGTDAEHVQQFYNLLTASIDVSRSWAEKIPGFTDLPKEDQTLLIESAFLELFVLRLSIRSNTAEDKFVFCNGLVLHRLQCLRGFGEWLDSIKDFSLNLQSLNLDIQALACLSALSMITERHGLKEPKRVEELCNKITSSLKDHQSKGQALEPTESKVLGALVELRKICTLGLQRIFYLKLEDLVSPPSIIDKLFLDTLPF

Molecular target: protein arginine methyltransferase 5 (PRMT5), endogenous in human EnSC (human (endogenous in human EnSC)) (UniProt O14744)
Test: affinity purification with mass spectrometry

Row | Molecule | binding
1 | NR4A3, endogenous in human EnSC (from UniProt Q92570 1-626) | binds
2 | FAM120A, endogenous in human EnSC (protein, UniProt Q9NZB2 1-1118) MGVQGFQDYIEKHCPSAVVPVELQKLARGSLVGGGRQRPPQTPLRLLVDADNCLHRLYGGFYTDWVSGGQWNHMLGYLAALAKACFGGNIELFVFFNGALEKARLHEWVKRQGNERQTAQQIVSHVQNKGTPPPKVWFLPPVCMAHCIRLALIRFHVKVAQSIEDHHQEVIGFCRENGFHGLVAYDSDYALCNIPYYFSAHALKLSRNGKSLTTSQYLMHEVAKQLDLNPNRFPIFAALLGNHILPDEDLASFHWSLLGPEHPLASLKVRAHQLVLPPCDVVIKAVADYVRNIQDTSDLDAIAKDVFQHSQSRTDDKVIRFKRAIGYYSATSKPMSFHPPHYLAARPGPFGMPGMVPPHVPPQMLNIPQTSLQAKPVAPQVPSPGGAPGQGPYPYSLSEPAPLTLDTSGKNLTEQNSYSNIPHEGKHTPLYERSSPINPAQSGSPNHVDSAYFPGSSTSSSSDNDEGSGGATNHISGNKIGWEKTGSHSEPQARGDPGDQTKAEGSSTASSGSQLAEGKGSQMGTVQPIPCLLSMPTRNHMDITTPPLPPVAPEVLRVAEHRHKKGLMYPYIFHVLTKGEIKIAVSIEDEANKDLPPAALLYRPVRQYVYGVLFSLAESRKKTERLAFRKNRLPPEFSPVIIKEWAAYKGKSPQTPELVEALAFREWTCPNLKRLWLGKAVEDKNRRMRAFLACMRSDTPAMLNPANVPTHLMVLCCVLRYMVQWPGARILRRQELDAFLAQALSPKLYEPDQLQELKIENLDPRGIQLSALFMSGVDMALFANDACGQPIPWEHCCPWMYFDGKLFQSKLLKASREKTPLIDLCDGQADQAAKVEKMRQSVLEGLSFSRQSHTLPFPPPPALPFYPASAYPRHFGPVPPSQGRGRGFAGVCGFGGPYGETVATGPYRAFRVAAASGHCGAFSGSDSSRTSKSQGGVQPIPSQGGKLEIAGTVVGHWAGSRRGRGGRGPFPLQVVSVGGPARGRPRGVISTPVIRTFGRGGRYYGRGYKNQAAIQGRPPYAASAEEVAKELKSKSGESKSSAMSSDGSLAENGVMAEEKPAPQMNGSTGDARAPSHSESALNNDSKTCNTNPHLNALSTDSACRREAALEAAVLNKEE | binds
